In paper PMC12864446:
Results are given in words; binding and its absence hold for the method and conditions named. In cells and extracts the contact can be indirect. Some binding calls cover weakened binding; strength is not graded here. Where a sequence is shown, tags or fusion partners need not be part of it. Blank lines part the entries; values can stand above or below the binder they belong to.

How the values were obtained:
[1] = target: T1, nLUC-ZEP (Arabidopsis thaliana) (UniProt Q9FGC7); assay: split reporter; split-luciferase complementation in intact N. benthamiana leaves; high light (600 µmol m-2 s-1) for 3 h at 2 dpi, 1 mM d-luciferin, CCD imaging; empty nLUC and cLUC as negative controls
T1 sequence: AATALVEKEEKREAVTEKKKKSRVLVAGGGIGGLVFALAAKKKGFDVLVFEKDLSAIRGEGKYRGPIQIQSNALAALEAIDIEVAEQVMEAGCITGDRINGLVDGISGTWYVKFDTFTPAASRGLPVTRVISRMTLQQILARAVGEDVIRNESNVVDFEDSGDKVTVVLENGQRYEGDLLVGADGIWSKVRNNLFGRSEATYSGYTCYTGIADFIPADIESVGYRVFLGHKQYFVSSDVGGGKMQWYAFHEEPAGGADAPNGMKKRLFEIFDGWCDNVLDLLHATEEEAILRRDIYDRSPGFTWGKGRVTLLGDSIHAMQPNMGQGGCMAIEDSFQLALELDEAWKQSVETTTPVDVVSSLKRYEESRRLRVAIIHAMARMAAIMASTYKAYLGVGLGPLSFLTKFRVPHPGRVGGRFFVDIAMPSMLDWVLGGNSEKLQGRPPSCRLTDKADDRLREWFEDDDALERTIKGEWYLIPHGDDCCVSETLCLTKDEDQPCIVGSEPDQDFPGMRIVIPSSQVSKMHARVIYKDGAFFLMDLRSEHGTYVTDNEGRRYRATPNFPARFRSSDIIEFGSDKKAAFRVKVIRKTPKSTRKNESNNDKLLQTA

[2] = target: T2, cYFP-ZEP (Arabidopsis thaliana) (UniProt Q9FGC7); assay: split reporter; BiFC with split YFP in mesophyll cells of tobacco leaves, confocal microscopy; empty vector combinations as negative controls
T2 sequence: T1 sequence

binding [1]: binds
B1: cLUC-PsbS (protein, UniProt Q9XF91 60-265)
chain: AAPKKVEKPKSKVEDGIFGTSGGIGFTKANELFVGRVAMIGFAASLLGEALTGKGILAQLNLETGIPIYEAEPLLLFFILFTLLGAIGALGDRGKFVDDPPTGLEKAVIPPGKNVRSALGLKEQGPLFGFTKANELFVGRLAQLGIAFSLIGEIITGKGALAQLNIETGIPIQDIEPLVLLNVAFFFFAAINPGNGKFITDDGEES

binding [2]: binds
B2: PsbS-nYFP (protein, UniProt Q9XF91 60-265)
chain: B1 chain
